Several values for one entry are separate records, joined by “and”; a condition that tells them apart may be missing. Identical values can stand only once. The list shows a part of the results. The main result of the screen is listed elsewhere. These columns were measured beside it and carry no call. Most of these compounds were active or inconclusive in the main read-out, so they are no random draw. Potencies come from curve fits of mixed quality, noted in brackets.
Assay: qHTS Assay to Find Inhibitors of Chronic Active B-Cell Receptor Signaling
Conditions: ABC-DLBCL IkBa-CBG/CBR reporter, luminescence ratio (green luciferase fused to IkBa over red control in TMD8 lymphoma cells), 4 h
Outline: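 Cell line TMD8 (human ABC DLBCL), stably expressing tet-inducible CBG68-IkBa fusion and CBR; IMDM/0.5% FBS; cpd up to 46 uM; dox induction, 4 h, 37C/5% CO2; dual luminescence; green/red ratio; MG132 control.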

[1] = measured here: CBR red luminescence, cell number
[2] = measured here: IkBa-CBG green luminescence

SMILES	AC50 [1]	AC50 [2]
COCC(C)n1c(C)cc(C(=O)CSc2nc3ccccc3c(=O)[nH]2)c1C (stereo not given)	7.94 µM [falling, full curve, poor fit]	–
O=C1NC[C@H](c2ccccc2)OC(=O)[C@@H](Cc2ccc(F)cc2)C/C=C\C[C@H]1CC(=O)N(CCO)Cc1ccccc1	18.4 µM [falling, single point]	–
CCOC(=O)c1c(C)[nH]c(C)c1C(=O)COC(=O)c1ccc(Cl)nc1	3.26 µM [rising, partial curve, poor fit]	–
CC1(OC(=O)C2CCCC2)C(=O)C=C2C=C(c3ccsc3)N(Cc3ccccc3)C=C2C1=O (stereo not given)	2.82 µM [rising, partial curve, poor fit]	–
CCNc1nc(N)nc(Oc2ccc(C(=O)OC)cc2)n1	5.17 µM [rising, partial curve, poor fit]	–
O=S(=O)(Nc1cccc(-c2ccc3nncn3n2)c1)c1cccc(F)c1	–	18.4 µM [falling, partial curve, poor fit]
Cc1ccc([N+](=O)[O-])cc1N=Nc1c(C)[nH]n(C(N)=S)c1=O	–	5.62 µM [falling, single point]
Cc1onc(-c2ccccc2)c1CNS(=O)(=O)c1ccccc1	11.2 µM [falling, partial curve]	–
COC(=O)CN1C(C)=Nc2ccc(C)cc2C1c1ccccc1 (stereo not given)	7.08 µM [rising, partial curve, poor fit]	–
O=C(N/N=C/c1ccccn1)c1cc(-c2ccncc2)nc2ccccc12	29.1 µM [rising, single point]	20.6 µM [falling, single point]
O=[N+]([O-])c1ccc2nc(SCc3cn4ccccc4n3)[nH]c2c1	0.13 µM [rising, full curve]	–
CCOC(=O)C(=O)Nc1ccc(F)cc1	6.51 µM [falling, partial curve]	–
CCOC(=O)C1CCN(C(=O)Nc2ccc(OC)c(OC)c2)CC1	2.31 µM [rising, partial curve, poor fit]	–
CC1(C)CC(=O)C=C(c2ccc(-c3ccccc3)cc2)C1	9.2 µM [rising, partial curve, poor fit]	–
CCOc1ccc2nc(N3CCCC(C(=O)NCCCN4CC(C)CC(C)C4)C3)sc2c1 (stereo not given)	2.82 µM [falling, full curve, poor fit]	–
COc1ccccc1CNC(=O)CCCNC(=O)Cn1cnc2sc(C)c(C)c2c1=O	6.31 µM [rising, single point]	–
Oc1c(Br)cc(Br)cc1CNc1cnc2ccccc2c1	12.6 µM [falling, partial curve]	35.5 µM [rising, partial curve, poor fit]
O=C(O)c1ccc(NC2=C(N3CCOCC3)C(=O)c3ccccc3C2=O)cc1	10.3 µM [falling, partial curve, poor fit]	–
COc1ccc2c(c1)c(CC(=O)OC(C)C(=O)N(C)C)c(C)n2C(=O)c1ccc(Cl)cc1 (stereo not given)	10 µM [falling, partial curve, poor fit]	–
O=C(/C=C\c1ccco1)Nc1cc([N+](=O)[O-])ccc1F	8.2 µM [rising, partial curve]	5.17 µM [falling, full curve]
COc1ccc(-c2cc3nc(C)c(CCC(=O)N4CCN(c5ccccn5)CC4)c(C)n3n2)c(OC)c1	10 µM [falling, partial curve]	–

SMILES	AC50 [1]	AC50 [2]
COc1ccc(-c2csc(NC(=O)Cc3ccccc3F)n2)cc1OC	15.8 µM [falling, single point]	–
COc1ccc(/C=C/C(=O)O)cc1Cl	7.08 µM [rising, partial curve, poor fit]	–
Cc1cccc(NC(=O)CN(C)CC(=O)NC(c2ccccc2)c2ccccc2)c1C	1.03 µM [falling, full curve, poor fit]	–
CC(C)(C)NC(=O)CSC(=Nc1cccc(F)c1)NC#N	17.8 µM [falling, single point]	–
COc1ccc(/C=C/C(=O)O)cc1S(=O)(=O)NC1CCS(=O)(=O)C1 (stereo not given)	35.5 µM [rising, single point]	–
Cc1cc2cc3c(cc2nc1SCC(=O)OC(C)C)OCO3	32.6 µM [rising, single point]	–
COC(=O)CCCC1=CC2=CC(=O)C(C)(OC(=O)c3cccs3)C(=O)C2=CN1CCc1ccccn1 (stereo not given)	20 µM [rising, partial curve, poor fit]	–
CN1c2ccccc2C(C)(C)C12C=Nc1c(cc(N3CCOCC3)c3ccccc13)O2 (stereo not given)	7.08 µM [falling, partial curve]	–
CCOC(=O)c1ccc2c(c1)N(CC(=O)N1CCCC1)C(=O)C(C)(C)O2	12.6 µM [rising, partial curve, poor fit]	–
CCN(c1ccccc1)c1ncnc2c1cnn2-c1ccccc1	3.26 µM [rising, full curve, poor fit]	–
O=C(NCc1ccc2c(c1)OCO2)c1cccc(S(=O)(=O)N2CCOCC2)c1	29.1 µM [falling, single point]	–
CS(=O)(=O)c1ccc(-c2sc3ccccc3c2C#CCCO)cc1	23.1 µM [rising, single point]	–
NC(=O)CC(NC(=O)Cc1ccc(Br)cc1)c1ccc(N2CCN(c3ccccn3)CC2)c([N+](=O)[O-])c1 (stereo not given)	6.31 µM [rising, single point]	–
O=C(NCCc1ccc(Cl)cc1Cl)c1cccnc1	6.31 µM [rising, full curve, poor fit]	–
CC12COC3(C(=O)NCCc4ccccc4)CC1CCC32C (stereo not given)	25.9 µM [rising, single point]	–
c1cc2c(cc1-c1[nH]ncc1CN1C[C@H]3CC[C@H]1C3)OCO2	1.78 µM [falling, partial curve, poor fit]	–
COc1cccc(SCc2noc(C(=O)NC(C)C)c2C(=O)O)c1	22.4 µM [falling, single point]	–
N#Cc1ccc2c(c1)C[C@]1(c3ccsc3)OC3=C(C(=O)OC4(CCCCC4)C3)C2O1	1.41 µM [falling, partial curve, poor fit]	–
COc1ccc(/C=C/C(=O)c2cc3c(cc2N)OCO3)cc1	5.62 µM [falling, full curve, poor fit]	–
COc1ccc(C(=O)CC(=O)C(=O)Nc2cc([N+](=O)[O-])ccc2OC)cc1	35.5 µM [rising, single point]	–
Cc1ccc(CNCC(O)(c2ccc(F)cc2)c2ccc(F)cc2)cc1	11.2 µM [falling, single point]	–

SMILES	AC50 [1]	AC50 [2]
CCOc1ccccc1N1CCN(C(=S)NCc2ccc(Cl)cc2)CC1	22.4 µM [falling, single point]	–
Cc1ccccc1N1CCN(C2CCCN(C(=O)c3cn4cccc(C)c4n3)C2)CC1 (stereo not given)	22.4 µM [falling, single point]	–
COc1ccc(NC(=S)N(CCC(C)C)C2CCN(C(C)C)CC2)cc1	14.1 µM [rising, single point]	–
CNc1oc(-c2cccc3ccccc23)nc1C#N	14.1 µM [rising, single point]	–
CCn1cc(C(=O)NCCOC)c(=O)c2ccc(C)nc21	5.8 µM [falling, partial curve, poor fit]	–
CCCCn1c(SCC(=O)NCc2ccco2)nnc1-c1ccco1	6.31 µM [rising, single point]	–
Cc1ccccc1-c1cc(C(=O)NCc2cccc(Br)c2)n(CC2CC(c3cccnc3)=NO2)n1 (stereo not given)	9.2 µM [falling, partial curve, poor fit]	–
O=C(OCCN1CCCCC1)c1c[nH]c2ccccc12	13 µM [rising, partial curve, poor fit]	–
N#CCC(=O)N/N=C\c1ccccc1OC/C=C/c1ccccc1	0.316 µM [rising, partial curve, poor fit]	–
COc1ccc(N2CCN(C(=O)CN(c3ccc(OC)cc3)S(=O)(=O)c3ccccc3)CC2)cc1	3.16 µM [rising, partial curve]	–
CCOC(=O)c1c(NC(=O)CCN2CCOCC2)sc2c1CC(C)(C)OC2	2.24 µM [rising, full curve]	–
COc1ccc(OCC(=O)Nc2nc3ccccc3[nH]2)cc1	29.1 µM [falling, partial curve, poor fit]	–
O=C(COC(=O)c1ccc(F)c(S(=O)(=O)N2CCOCC2)c1)NC1CC1	0.231 µM [rising, full curve, poor fit]	–
Cc1sc(NC(=O)CCCC(=O)O)c(C#N)c1C	2.91 µM [rising, single point]	–
O=S(=O)(Nc1cccc(Oc2ccc(Cl)cc2)n1)c1ccc(F)cc1	5.62 µM [falling, full curve, poor fit]	–
COc1ccc(C2c3c(ncn(CCCN4CCOCC4)c3=N)Oc3ccc4ccccc4c32)cc1OC (stereo not given)	11.2 µM [falling, partial curve, poor fit]	–
COC(=O)c1[nH]c2ccc(Br)cc2c1NC(=O)CN1CCCCC1CCO (stereo not given)	7.94 µM [rising, partial curve]	–
c1cncc(CNc2ncnc3ccc(-c4cccnc4)cc23)c1	11.6 µM [rising, single point] and 23.1 µM [rising, single point]	14.6 µM [falling, partial curve, poor fit]
CCOC(=O)c1[nH]c2cc(OC)c(OC)cc2c1NC(=O)c1nonc1C	0.708 µM [falling, full curve, poor fit]	–

From PubChem BioAssay AID493014 (National Center for Advancing Translational Sciences (NCATS), 2011)
